Measured values reported in the supplement of paper PMC8728848.
Some of the results follow.

Experiments:
Experiment in all cases: glycan array binding signal (z-score within array); higher = stronger binding
Settings in all cases: glycan notation: IUPAC condensed, linker removed
[1] = biological target: Gal(b1-3)GlcNAc(b1-6)[Gal(b1-3)]GalNAc
How it was run: (§1)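 The binding signal is a Z-score computed within each array. Data were drawn from 3228 arrays in the Consortium for Functional Glycomics database, restricted to those with a known protein sequence. Scores were averaged over arrays of the same protein sequence at different concentrations or buffers, and over linkers, and negative values can be taken as non-binding.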

Gal(b1-3)GlcNAc6S = biological target: Gal(b1-3)GlcNAc6S
How it was run: as §1

[2] = biological target: Gal(b1-3)[Fuc(a1-4)]GlcNAc
How it was run: as §1

[3] = biological target: Gal(b1-3)[Fuc(a1-4)]GlcNAc(b1-2)Man
How it was run: as §1

[4] = biological target: Gal(b1-3)[Fuc(a1-4)]GlcNAc(b1-2)Man(a1-3)[Gal(b1-3)[Fuc(a1-4)]GlcNAc(b1-2)Man(a1-6)]Man(b1-4)GlcNAc(b1-4)[Fuc(a1-6)]GlcNAc
How it was run: as §1

[5] = biological target: Gal(b1-3)[Fuc(a1-4)]GlcNAc(b1-3)Gal(b1-3)[Fuc(a1-4)]GlcNAc
How it was run: as §1

[6] = biological target: Gal(b1-3)[Fuc(a1-4)]GlcNAc(b1-3)Gal(b1-4)[Fuc(a1-3)]GlcNAc
How it was run: as §1

[7] = biological target: Gal(b1-3)[Fuc(a1-4)]GlcNAc(b1-6)GalNAc
How it was run: as §1

[8] = biological target: Gal(b1-3)[GlcNAc(b1-6)]GalNAc
How it was run: as §1

[9] = biological target: Gal(b1-3)[Neu5Ac(a2-6)]GalNAc
How it was run: as §1

[10] = biological target: Gal(b1-3)[Neu5Ac(a2-6)]GlcNAc(b1-4)Gal(b1-4)Glc
How it was run: as §1

[11] = biological target: Gal(b1-3)[Neu5Ac(b2-6)]GalNAc
How it was run: as §1

Gal(b1-4)Gal = biological target: Gal(b1-4)Gal
How it was run: as §1

[12] = biological target: Gal(b1-4)GalNAc(a1-3)[Fuc(a1-2)]Gal(b1-4)GlcNAc
How it was run: as §1

[13] = biological target: Gal(b1-4)GalNAc(b1-3)[Fuc(a1-2)]Gal(b1-4)GlcNAc
How it was run: as §1

Gal(b1-4)Glc = biological target: Gal(b1-4)Glc
How it was run: as §1

Gal(b1-4)Glc6S = biological target: Gal(b1-4)Glc6S
How it was run: as §1

Gal(b1-4)GlcNAc = biological target: Gal(b1-4)GlcNAc
How it was run: as §1

[14] = biological target: Gal(b1-4)GlcNAc(a1-6)Gal(b1-4)GlcNAc
How it was run: as §1

Gal(b1-4)GlcNAc(b1-2)Man = biological target: Gal(b1-4)GlcNAc(b1-2)Man
How it was run: as §1

[15] = biological target: Gal(b1-4)GlcNAc(b1-2)Man(a1-3)Man(b1-4)GlcNAc(b1-4)GlcNAc
How it was run: as §1

[16] = biological target: Gal(b1-4)GlcNAc(b1-2)Man(a1-3)[Gal(b1-4)GlcNAc(b1-2)Man(a1-6)]Man(b1-4)GlcNAc(b1-4)GlcNAc
How it was run: as §1

B1: Agalectin (Anopheles gambiae) (protein)
chain: MSNRPFTAKFPRYPENGDEVFIRGKLKDDAKSFSVNFCLPRPAQVAEHQTPPYIALHFKTIYDERDDTSRVVLNWKNLQWQQEEVLDNYWHVDRSQTFRVVFRLHEDCIKVFVNSVDHPPDYQFPVQLPLDQIESIELWDDVEHVEEISFRYDNGNSY
- glycan array binding signal (z-score) [1]: -1.37
- glycan array binding signal (z-score) (Gal(b1-3)GlcNAc6S): -1.14
- glycan array binding signal (z-score) [2]: -0.875
- glycan array binding signal (z-score) [3]: 1.44
- glycan array binding signal (z-score) [4]: 1.3
- glycan array binding signal (z-score) [5]: -0.675
- glycan array binding signal (z-score) [6]: -0.54
- glycan array binding signal (z-score) [7]: 1.05
- glycan array binding signal (z-score) [8]: 1.17
- glycan array binding signal (z-score) [9]: -0.11
- glycan array binding signal (z-score) [10]: -0.729
- glycan array binding signal (z-score) [11]: 0.408
- glycan array binding signal (z-score) (Gal(b1-4)Gal): -0.002
- glycan array binding signal (z-score) [12]: 0.003
- glycan array binding signal (z-score) [13]: -0.19
- glycan array binding signal (z-score) (Gal(b1-4)Glc): -0.265
- glycan array binding signal (z-score) (Gal(b1-4)Glc6S): -0.839
- glycan array binding signal (z-score) (Gal(b1-4)GlcNAc): -0.597
- glycan array binding signal (z-score) [14]: -0.597
- glycan array binding signal (z-score) (Gal(b1-4)GlcNAc(b1-2)Man): -0.365
- glycan array binding signal (z-score) [15]: 1.51
- glycan array binding signal (z-score) [16]: -0.853
